The other results are listed elsewhere or left out. The main result of the screen is listed elsewhere. These columns were measured beside it and carry no call. The list favours compounds with an active or inconclusive main result. Words in brackets tell the shape of the fitted curve; partial curves, single points and poor fits give uncertain potencies.

The nature of this assay: qHTS Assay for Modulators of Lamin A Splicing. The note with it: HeLa LMNA splicing GFP/RFP minigene ratio, 48 h. Summed up:
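S3 HeLa stable clones carrying a lamin A-EGFP splicing minigene plus DsRed2 were seeded at 600 cells/well in Opti-MEM with 2% FBS, pin-dosed and incubated 48 h at 37°C. Acumen cytometry (488 nm) gave the GFP/RFP total-intensity ratio.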
For orientation: Quantitative high-throughput screening tests each substance at several concentrations.

Setting [1] is: measured here: GFP splicing reporter channel.
The mark [2] stands for this setting: measured here: RFP viability control channel.

`C=CCNc1nc(-c2ccccc2)c(C(=O)OCC)cc1C#N`: the concentration at half-maximal activity (AC50) (usually the concentration at which the activity in the assay is half-maximal) reads like this: under setting [1], 25.1 µM [falling, single point]; under setting [2], 17.8 µM [falling, single point]. Regarding `CC(C)(C)CC(C)(C)N=C1NS(=O)(=O)c2cc([N+](=O)[O-])ccc21`, under setting [1], the concentration at half-maximal activity (AC50) was 12.6 µM [falling, partial curve, poor fit]. For the compound `Nc1ncc(-n2cncn2)c(-c2ccccc2)n1`, the AC50 under setting [2] is 28.2 µM [falling, partial curve, poor fit]. In the case of `O=S1(=O)CCN2C(=N1)Sc1c2ccc2c1CCCC2`, the half-maximal activity concentration (AC50) under setting [2] is 14.1 µM [falling, single point]. For `O=C(c1ccccn1)c1cc2ccccc2n1S(=O)(=O)c1ccccc1`, the AC50 is, setting by setting: under setting [1], 7.94 µM [rising, partial curve]; under setting [2], 10 µM [rising, partial curve]. On to `NC1=NC(=Nc2ccc(Cl)cc2)c2ccccc21`, for which, under setting [2], the AC50 is 35.5 µM [rising, single point]. With `C=C(C)CNC(=S)NNC(=O)CCn1c2ccc(Cl)cc2c2cc(Cl)ccc21`, the AC50 was 35.5 µM [falling, single point] under setting [1] and 22.4 µM [falling, single point] under setting [2].

With `O=C(Cc1ccccc1)Nc1nc(-c2cccs2)cs1`, under setting [2], the half-maximal activity concentration (AC50) was 14.1 µM [rising, partial curve, poor fit]. As for `COc1cccc(C(=O)CSc2nnc(-c3cc(OC)cc(OC)c3)o2)c1`, the concentration at half-maximal activity (AC50) under setting [1] is 0.178 µM [rising, full curve, poor fit]. With `CC(C)(C)c1ccc(C(=O)NC(=S)NCC2CCCO2)cc1` (stereo not given), the half-maximal activity concentration (AC50) under setting [2] was 15.8 µM [rising, partial curve]. With `CC(C)n1c(O)c(N=NC(=O)C2COc3ccccc3O2)c2ccccc21` (stereo not given), the AC50 was 0.00631 µM [rising, full curve, poor fit] under setting [1] and 0.00501 µM [rising, full curve, poor fit] under setting [2]. For the compound `CCOC(=O)c1c(-c2ccc(C)cc2)csc1NC(=O)C1CCCO1` (stereo not given), the AC50 by setting is: under setting [1], 14.1 µM [rising, partial curve]; under setting [2], 22.4 µM [rising, partial curve]. On to `Cc1ccc2sc(NC(=O)c3ccc4c(c3)OCCO4)nc2c1C`, for which the AC50 was 28.2 µM [rising, partial curve, poor fit] under setting [1] and 35.5 µM [rising, partial curve] under setting [2]. Turning to `COc1ccc(NC(=O)CN2c3cccc4cccc(c34)S2(=O)=O)c(OC)c1`, under setting [2], the half-maximal activity concentration (AC50) was 12.6 µM [rising, single point]. Consider `CCN(CC)CCCNC(=O)c1nn(C)c2c1CS(=O)(=O)c1ccccc1-2`, for which the AC50 under setting [1] was 35.5 µM [falling, single point]. As for `Cc1ccccc1Cn1c(CN2CCC(C(=O)NCCc3ccccc3)CC2)cc2ccccc21`, the concentration at half-maximal activity (AC50) under setting [1] is 6.31 µM [falling, full curve, poor fit].

Take `Cc1ccc(C(=O)NNC(=S)Nc2cccc(Cl)c2Cl)cc1[N+](=O)[O-]`: under setting [2], the half-maximal activity concentration (AC50) was 12.6 µM [rising, single point]. As for `NC(=O)COC(=O)c1ccc(-c2ccc(O)cc2)cc1`, the concentration at half-maximal activity (AC50) is, setting by setting: under setting [1], 1.58 µM [rising, full curve, poor fit]; under setting [2], 0.282 µM [rising, full curve].

For the compound `CCN(CC)S(=O)(=O)c1cccc(NC(=O)COC(=O)CCC(=O)c2cccs2)c1`, under setting [1], the AC50 was 0.631 µM [rising, full curve, poor fit]. As to `COCCCNc1oc(-c2ccc(COc3ccc(Cl)cc3)o2)nc1C#N`, the AC50 under setting [2] was 11.2 µM [rising, single point]. On to `c1ccc(-c2n[nH]c3c2CCC3)cc1`, for which the concentration at half-maximal activity (AC50) under setting [1] is 5.01 µM [falling, full curve] and the AC50 under setting [2] is 5.01 µM [falling, full curve]. As to `COC(=O)c1ccccc1NC(=O)Cn1c(-c2nonc2N)nc2ccccc21`, under setting [2], the AC50 was 2.51 µM [rising, full curve]. For the compound `O=C1/C(=C/c2ccccc2[N+](=O)[O-])COc2ccccc21`, the half-maximal activity concentration (AC50) under setting [2] is 15.8 µM [rising, partial curve].

For the compound `Cc1nn(-c2ccccc2)c(C)c1/C=N/NC(=O)c1cc(-c2ccccc2)n[nH]1`, the AC50 under setting [2] was 0.794 µM [rising, full curve, poor fit].

On to `CCOC(=O)c1c(S(=O)(=O)N2CCCC(C(=O)Nc3cccc(C)n3)C2)c(C)n(C)c1C` (stereo not given), for which the concentration at half-maximal activity (AC50) under setting [2] is 3.55 µM [falling, partial curve]. With `COc1ccc(CNC(=O)CSc2nnc(-c3cccnc3)n2N)cc1`, under setting [1], the concentration at half-maximal activity (AC50) is 0.158 µM [falling, full curve, poor fit]. Regarding `CN(C)c1nc(N(C)C)n(C(=O)c2cccs2)n1`, the AC50 reads like this: under setting [1], 0.0501 µM [falling, full curve, poor fit]; under setting [2], 0.00708 µM [falling, full curve, poor fit]. Consider `COc1ccc(Cn2ccc3nc(C)c(C(=O)NCc4ccc(F)cc4)cc3c2=O)cc1`, for which the AC50 was 0.0398 µM [rising, full curve, poor fit] under setting [1] and 0.708 µM [rising, full curve, poor fit] under setting [2]. In the case of `Cn1cc(C2N3CC4(C)CN2CC(C)(C3)C4=O)c2ccccc21` (stereo not given), the AC50 reads like this: under setting [1], 35.5 µM [falling, single point]; under setting [2], 35.5 µM [falling, partial curve]. As for `O=c1oc2c(CN3CCN(CCO)CC3)c(O)ccc2cc1-c1ccccc1`, the AC50 under setting [1] was 0.126 µM [rising, full curve, poor fit] and the half-maximal activity concentration (AC50) under setting [2] was 0.316 µM [rising, partial curve, poor fit].

For the compound `COCCn1c(SCC(=O)Nc2ccc3c(c2)OCCO3)nc2c(c1=O)SC(C)C2` (stereo not given), under setting [2], the half-maximal activity concentration (AC50) was 7.94 µM [rising, partial curve, poor fit]. `N#CC1=C2C=Cc3ccccc3N2CCCC1=O`: the concentration at half-maximal activity (AC50) under setting [2] was 0.708 µM [rising, partial curve]. Same read-out and setting: under `CCOC(=O)c1ccc(NC(=O)CCc2nc(-c3ccc(C)cc3)no2)cc1` stands 17.8 µM [rising, single point]. As to `Nc1c(-c2ccccc2)nc(Cl)nc1-c1ccccc1`, the AC50 under setting [1] is 35.5 µM [rising, single point] and the AC50 under setting [2] is 35.5 µM [rising, single point]. `C=CCn1c(CCCOc2ccc(Cl)cc2Cl)n[nH]c1=S`: under setting [2], the half-maximal activity concentration (AC50) was 17.8 µM [rising, single point]. `Cc1nn(-c2ccccc2)c(Cl)c1/C=C/C(=O)c1ccccc1`: the concentration at half-maximal activity (AC50) reads like this: under setting [1], 20 µM [falling, single point]; under setting [2], 25.1 µM [falling, single point]. For the compound `Cc1ccc(CNC(=O)C23CN(Cc4ccccc4)CC2C(c2ccc([N+](=O)[O-])cc2)=NO3)cc1` (stereo not given), the AC50 under setting [2] was 8.91 µM [rising, partial curve, poor fit]. Consider `CSc1nc(-c2ccccc2)c(C#N)c(=O)n1C`, for which, under setting [2], the half-maximal activity concentration (AC50) was 0.00794 µM [falling, full curve, poor fit]. With `O=[N+]([O-])c1cccc(-c2nc(Oc3ccc(Cl)cc3)c3ccccc3n2)c1`, the AC50 under setting [1] is 2.51 µM [rising, partial curve, poor fit] and the AC50 under setting [2] is 2.24 µM [rising, partial curve, poor fit]. On to `CCc1c(C)nc2ncnn2c1N1CCC(C(=O)N2CCN(c3ccc(F)cc3)CC2)CC1`, for which the AC50 runs as follows: under setting [1], 11.2 µM [rising, partial curve, poor fit]; under setting [2], 35.5 µM [rising, single point]. For the compound `Cc1nc2ccn(Cc3cccs3)c(=O)c2cc1C(=O)Nc1ccccc1`, under setting [1], the AC50 is 0.0355 µM [falling, full curve, poor fit]. Same read-out and setting: under `COc1ccc(-n2c(O)c(/C=N/NS(=O)(=O)c3cc(C)ccc3C)c3ccccc3c2=O)cc1OC` stands 11.2 µM [falling, partial curve, poor fit]. As for `CC1=C(C(=O)NCc2ccc(Cl)cc2)C2(CCCCC2)OC1=O`, the half-maximal activity concentration (AC50) under setting [2] was 4.47 µM [falling, full curve, poor fit]. Same read-out and setting: under `Cc1nn(CC(=O)Nc2ccc3c(c2)oc2ccccc23)c(=O)c2ccccc12` stands 1.58 µM [rising, partial curve, poor fit]. Regarding `Cn1ccsc1=NC(=O)c1ccc(Cl)cc1`, the half-maximal activity concentration (AC50) is, setting by setting: under setting [1], 2.82 µM [falling, partial curve, poor fit]; under setting [2], 8.91 µM [falling, partial curve, poor fit].

Turning to `COc1ccc(NS(=O)(=O)c2ccc3[nH]c4c(c3c2)CCCC4)cc1Cl`, the AC50 runs as follows: under setting [1], 20 µM [falling, single point]; under setting [2], 35.5 µM [falling, single point]. For the compound `COc1ccc(CCN2C(=O)CS/C2=N/NC(=O)c2ccccc2F)cc1OC`, the half-maximal activity concentration (AC50) under setting [2] is 35.5 µM [rising, single point]. Still for that read-out and setting: under `C(=C\c1ccco1)/C1=NN(c2ccccc2)C(c2ccco2)C1` (stereo not given) stands 31.6 µM [rising, single point]. As for `CSc1cccc(CN2CCCC(CNC(=O)c3ccc(F)cc3)C2)c1` (stereo not given), the concentration at half-maximal activity (AC50) by setting is: under setting [1], 0.0891 µM [falling, full curve, poor fit]; under setting [2], 0.1 µM [falling, full curve, poor fit]. Consider `CS(=O)(=O)N1CCN(c2ccccc2NC(=S)NC(=O)c2cccs2)CC1`, for which the AC50 under setting [1] is 3.16 µM [rising, partial curve]. With `COc1ccccc1-c1nc(N(C)C)c2ccccc2n1`, the AC50 was 12.6 µM [falling, partial curve] under setting [1] and 12.6 µM [falling, single point] under setting [2]. In the case of `COc1cc(Cl)c(C)cc1NC(=O)CNC(C)c1ccccc1OC` (stereo not given), under setting [1], the half-maximal activity concentration (AC50) was 11.2 µM [falling, partial curve]. Turning to `COc1ccc(Cc2c(O)nc(SCC(=O)c3ccc(OC)cc3)[nH]c2=O)cc1`, under setting [2], the half-maximal activity concentration (AC50) is 28.2 µM [rising, partial curve, poor fit]. On to `COc1ccc(OC)c(S(=O)(=O)N2c3cc(F)ccc3CCC2C)c1` (stereo not given), for which the AC50 by setting is: under setting [1], 10 µM [rising, partial curve]; under setting [2], 35.5 µM [rising, single point].

(Values after PubChem BioAssay AID1487 (National Center for Advancing Translational Sciences (NCATS), 2009).)
